Experimental data published in the supplement of paper PMC11264405.

Tests used:
Assay in all cases: minimum inhibitory concentration
linezolid = compound: CC(=O)NC[C@H]1CN(c2ccc(N3CCOCC3)c(F)c2)C(=O)O1 [linezolid]
rifampicin = compound: CO[C@H]1/C=C/O[C@@]2(C)Oc3c(C)c(O)c4c(O)c(c(/C=N/N5CCN(C)CC5)c(O)c4c3C2=O)NC(=O)/C(C)=C\C=C\[C@H](C)[C@H](O)[C@@H](C)[C@@H](O)[C@@H](C)[C@H](OC(C)=O)[C@@H]1C [rifampicin]
imipenem = compound: C[C@@H](O)[C@H]1C(=O)N2C(C(=O)O)=C(SCCNC=N)C[C@H]12 [imipenem]
clindamycin = compound: CCC[C@@H]1C[C@@H](C(=O)N[C@@H]([C@H]2O[C@H](SC)[C@H](O)[C@@H](O)[C@H]2O)[C@H](C)Cl)N(C)C1 [clindamycin]
vancomycin = compound: CN[C@H](CC(C)C)C(=O)N[C@H]1C(=O)N[C@@H](CC(N)=O)C(=O)N[C@H]2C(=O)N[C@H]3C(=O)N[C@H](C(=O)N[C@H](C(=O)O)c4cc(O)cc(O)c4-c4cc3ccc4O)[C@H](O)c3ccc(c(Cl)c3)Oc3cc2cc(c3O[C@@H]2O[C@H](CO)[C@@H](O)[C@H](O)[C@H]2O[C@H]2C[C@](C)(N)[C@H](O)[C@H](C)O2)Oc2ccc(cc2Cl)[C@H]1O [vancomycin]
meropenem = compound: C[C@@H](O)[C@H]1C(=O)N2C(C(=O)O)=C(S[C@@H]3CN[C@H](C(=O)N(C)C)C3)[C@H](C)[C@H]12 [meropenem]
metronidazole = compound: Cc1ncc([N+](=O)[O-])n1CCO [metronidazole]
fidaxomicin = compound: CCc1c(Cl)c(O)c(Cl)c(O)c1C(=O)O[C@H]1[C@H](O)[C@H](OC)[C@H](OC/C2=C\C=C\C[C@H](O)/C(C)=C/[C@H](CC)[C@@H](O[C@@H]3OC(C)(C)[C@@H](OC(=O)C(C)C)[C@H](O)[C@@H]3O)/C(C)=C/C(C)=C/C[C@@H]([C@@H](C)O)OC2=O)O[C@@H]1C [fidaxomicin]
tigecycline = compound: CN(C)c1cc(NC(=O)CNC(C)(C)C)c(O)c2c1C[C@H]1C[C@H]3[C@H](N(C)C)C(O)=C(C(N)=O)C(=O)[C@@]3(O)C(O)=C1C2=O [tigecycline]

| Test System | minimum inhibitory concentration (linezolid) | minimum inhibitory concentration (rifampicin) | minimum inhibitory concentration (imipenem) | minimum inhibitory concentration (clindamycin) | minimum inhibitory concentration (vancomycin) | minimum inhibitory concentration (meropenem) | minimum inhibitory concentration (metronidazole) | minimum inhibitory concentration (fidaxomicin) | minimum inhibitory concentration (tigecycline) |
| --- | --- | --- | --- | --- | --- | --- | --- | --- | --- |
| Clostridioides difficile PCR ribotype 027 isolate #125 (European region: East, country: Romania, isolate source: Human, ribotype: 027) | 2 µg/mL | > 32 µg/mL | 4 µg/mL | 64 µg/mL | 1 µg/mL | 4 µg/mL | 1 µg/mL |  |  |
| Clostridioides difficile PCR ribotype 039 isolate #148 (European region: North, country: UK, isolate source: Human, ribotype: 039) | 2 µg/mL | < 0.001 µg/mL | 4 µg/mL | 2 µg/mL | 0.5 µg/mL |  | < 0.125 µg/mL | 0.004 µg/mL | < 0.03 µg/mL |
| Clostridioides difficile PCR ribotype 050 isolate #327 (European region: West, country: Austria, isolate source: Animal, ribotype: 050) | 2 µg/mL | < 0.001 µg/mL | 2 µg/mL | 16 µg/mL |  | 4 µg/mL | < 0.125 µg/mL | 0.015 µg/mL | < 0.03 µg/mL |
| Clostridioides difficile PCR ribotype 077 isolate #177 (European region: East, country: Poland, isolate source: Human, ribotype: 077) | 2 µg/mL | < 0.001 µg/mL | 2 µg/mL | 8 µg/mL |  | 2 µg/mL | < 0.125 µg/mL | 0.03 µg/mL | < 0.03 µg/mL |
| Clostridioides difficile PCR ribotype 077 isolate #178 (European region: East, country: Poland, isolate source: Human, ribotype: 077) | 2 µg/mL | < 0.001 µg/mL | 2 µg/mL | 16 µg/mL |  | 2 µg/mL | < 0.125 µg/mL | 0.06 µg/mL | < 0.03 µg/mL |
| Clostridioides difficile PCR ribotype 078 isolate #184 (European region: South, country: Greece, isolate source: Human, ribotype: 078) | 2 µg/mL | < 0.001 µg/mL | 2 µg/mL | 2 µg/mL |  | 2 µg/mL | < 0.125 µg/mL | 0.125 µg/mL | < 0.03 µg/mL |
| Clostridioides difficile PCR ribotype 081 isolate #194 (European region: South, country: Italy, isolate source: Human, ribotype: 081) | 2 µg/mL | < 0.001 µg/mL | 4 µg/mL | 16 µg/mL |  | 2 µg/mL | < 0.125 µg/mL | 0.008 µg/mL | 0.125 µg/mL |
| Clostridioides difficile PCR ribotype 089 isolate #198 (European region: South, country: Italy, isolate source: Human, ribotype: 089) | 2 µg/mL | < 0.001 µg/mL | 2 µg/mL | 8 µg/mL |  | 2 µg/mL | < 0.125 µg/mL | 0.125 µg/mL | < 0.03 µg/mL |
| Clostridioides difficile PCR ribotype 126 isolate #215 (European region: South, country: Italy, isolate source: Human, ribotype: 126) | 2 µg/mL | < 0.001 µg/mL | 2 µg/mL | 16 µg/mL |  | 2 µg/mL | 0.25 µg/mL | 0.06 µg/mL | 0.06 µg/mL |
| Clostridioides difficile PCR ribotype 176 isolate #226 (European region: East, country: Slovakia, isolate source: Human, ribotype: 176) | 2 µg/mL | 4 µg/mL | 8 µg/mL | 8 µg/mL |  | 8 µg/mL | 0.25 µg/mL | 0.03 µg/mL | < 0.03 µg/mL |
| Clostridioides difficile PCR ribotype 198 isolate #255 (European region: East, country: Poland, isolate source: Human, ribotype: 198) | 2 µg/mL | 0.03 µg/mL | 4 µg/mL | > 128 µg/mL | < 0.125 µg/mL | 4 µg/mL | 4 µg/mL |  | 0.5 µg/mL |
| Clostridioides difficile PCR ribotype 353 isolate #261 (European region: South, country: Italy, isolate source: Human, ribotype: 353) | 2 µg/mL | > 32 µg/mL | 2 µg/mL | 4 µg/mL |  | 2 µg/mL | < 0.125 µg/mL | 0.03 µg/mL | < 0.03 µg/mL |
| Clostridioides difficile PCR ribotype 511 isolate #268 (European region: South, country: Italy, isolate source: Human, ribotype: 511) | 2 µg/mL | < 0.001 µg/mL | 2 µg/mL | 2 µg/mL |  | 2 µg/mL | < 0.125 µg/mL | 0.125 µg/mL | < 0.03 µg/mL |
| Clostridioides difficile PCR ribotype 926 isolate #278 (European region: West, country: Netherlands, isolate source: Human, ribotype: 926) | 2 µg/mL | < 0.001 µg/mL | 4 µg/mL | 0.5 µg/mL |  | 4 µg/mL | < 0.125 µg/mL | 0.125 µg/mL | 0.125 µg/mL |

Taken from above (two entries):

| Test System | minimum inhibitory concentration (linezolid) | minimum inhibitory concentration (rifampicin) | minimum inhibitory concentration (imipenem) | minimum inhibitory concentration (clindamycin) | minimum inhibitory concentration (vancomycin) | minimum inhibitory concentration (meropenem) | minimum inhibitory concentration (metronidazole) | minimum inhibitory concentration (fidaxomicin) | minimum inhibitory concentration (tigecycline) |
| --- | --- | --- | --- | --- | --- | --- | --- | --- | --- |
| Clostridioides difficile PCR ribotype 353 isolate #261 (European region: South, country: Italy, isolate source: Human, ribotype: 353) | 2 µg/mL | > 32 µg/mL | 2 µg/mL | 4 µg/mL |  | 2 µg/mL | < 0.125 µg/mL | 0.03 µg/mL | < 0.03 µg/mL |
| Clostridioides difficile PCR ribotype 511 isolate #268 (European region: South, country: Italy, isolate source: Human, ribotype: 511) | 2 µg/mL | < 0.001 µg/mL | 2 µg/mL | 2 µg/mL |  | 2 µg/mL | < 0.125 µg/mL | 0.125 µg/mL | < 0.03 µg/mL |
